In the supplement of paper PMC10849652:
The other results are listed elsewhere or left out.

Protein sequences, listed by entry. Tags and fused reporters are not part of them. Lines headed by an entry give the natural chain unless they say otherwise; changes in a name come on top.
UniProt Q13772: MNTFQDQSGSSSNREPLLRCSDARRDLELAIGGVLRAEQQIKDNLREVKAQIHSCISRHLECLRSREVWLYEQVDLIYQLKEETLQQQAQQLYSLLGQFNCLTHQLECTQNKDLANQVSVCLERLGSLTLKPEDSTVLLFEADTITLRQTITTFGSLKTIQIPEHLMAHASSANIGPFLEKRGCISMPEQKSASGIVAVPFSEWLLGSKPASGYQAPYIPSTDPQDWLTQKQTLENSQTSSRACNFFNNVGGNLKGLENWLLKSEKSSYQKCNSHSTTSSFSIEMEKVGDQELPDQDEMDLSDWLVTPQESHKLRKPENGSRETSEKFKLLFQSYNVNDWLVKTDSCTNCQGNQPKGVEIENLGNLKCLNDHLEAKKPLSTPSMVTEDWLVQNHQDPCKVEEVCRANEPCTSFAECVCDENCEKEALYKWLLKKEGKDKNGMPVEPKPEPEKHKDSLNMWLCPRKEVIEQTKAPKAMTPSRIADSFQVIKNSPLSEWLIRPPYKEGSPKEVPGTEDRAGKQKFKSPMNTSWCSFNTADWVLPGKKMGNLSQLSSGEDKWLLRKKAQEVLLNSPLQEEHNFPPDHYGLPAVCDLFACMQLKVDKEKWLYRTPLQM
UniProt Q14CX7, whole entry, looked up: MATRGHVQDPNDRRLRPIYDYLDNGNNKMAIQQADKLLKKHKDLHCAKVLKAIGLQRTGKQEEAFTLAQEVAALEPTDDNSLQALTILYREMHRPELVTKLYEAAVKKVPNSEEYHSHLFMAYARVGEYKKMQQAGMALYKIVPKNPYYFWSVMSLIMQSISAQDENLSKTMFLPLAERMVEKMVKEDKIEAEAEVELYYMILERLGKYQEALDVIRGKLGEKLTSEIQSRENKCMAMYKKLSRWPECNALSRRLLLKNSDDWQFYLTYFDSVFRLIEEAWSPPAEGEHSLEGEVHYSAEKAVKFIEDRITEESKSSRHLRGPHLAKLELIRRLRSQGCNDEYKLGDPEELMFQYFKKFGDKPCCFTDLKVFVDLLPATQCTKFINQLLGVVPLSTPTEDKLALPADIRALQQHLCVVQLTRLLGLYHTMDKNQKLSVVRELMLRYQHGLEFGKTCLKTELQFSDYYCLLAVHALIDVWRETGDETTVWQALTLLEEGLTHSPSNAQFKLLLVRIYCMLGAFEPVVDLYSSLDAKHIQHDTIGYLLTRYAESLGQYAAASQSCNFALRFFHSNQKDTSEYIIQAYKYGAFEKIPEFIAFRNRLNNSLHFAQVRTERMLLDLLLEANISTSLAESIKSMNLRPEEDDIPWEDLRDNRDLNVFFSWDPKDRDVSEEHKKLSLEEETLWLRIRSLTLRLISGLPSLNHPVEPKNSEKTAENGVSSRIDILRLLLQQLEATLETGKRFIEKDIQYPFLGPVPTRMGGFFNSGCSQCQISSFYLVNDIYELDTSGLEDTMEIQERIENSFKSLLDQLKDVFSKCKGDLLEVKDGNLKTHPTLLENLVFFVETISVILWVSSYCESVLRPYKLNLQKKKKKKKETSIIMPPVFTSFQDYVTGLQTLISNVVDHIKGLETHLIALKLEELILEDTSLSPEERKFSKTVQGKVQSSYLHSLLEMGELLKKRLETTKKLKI
UniProt O94832: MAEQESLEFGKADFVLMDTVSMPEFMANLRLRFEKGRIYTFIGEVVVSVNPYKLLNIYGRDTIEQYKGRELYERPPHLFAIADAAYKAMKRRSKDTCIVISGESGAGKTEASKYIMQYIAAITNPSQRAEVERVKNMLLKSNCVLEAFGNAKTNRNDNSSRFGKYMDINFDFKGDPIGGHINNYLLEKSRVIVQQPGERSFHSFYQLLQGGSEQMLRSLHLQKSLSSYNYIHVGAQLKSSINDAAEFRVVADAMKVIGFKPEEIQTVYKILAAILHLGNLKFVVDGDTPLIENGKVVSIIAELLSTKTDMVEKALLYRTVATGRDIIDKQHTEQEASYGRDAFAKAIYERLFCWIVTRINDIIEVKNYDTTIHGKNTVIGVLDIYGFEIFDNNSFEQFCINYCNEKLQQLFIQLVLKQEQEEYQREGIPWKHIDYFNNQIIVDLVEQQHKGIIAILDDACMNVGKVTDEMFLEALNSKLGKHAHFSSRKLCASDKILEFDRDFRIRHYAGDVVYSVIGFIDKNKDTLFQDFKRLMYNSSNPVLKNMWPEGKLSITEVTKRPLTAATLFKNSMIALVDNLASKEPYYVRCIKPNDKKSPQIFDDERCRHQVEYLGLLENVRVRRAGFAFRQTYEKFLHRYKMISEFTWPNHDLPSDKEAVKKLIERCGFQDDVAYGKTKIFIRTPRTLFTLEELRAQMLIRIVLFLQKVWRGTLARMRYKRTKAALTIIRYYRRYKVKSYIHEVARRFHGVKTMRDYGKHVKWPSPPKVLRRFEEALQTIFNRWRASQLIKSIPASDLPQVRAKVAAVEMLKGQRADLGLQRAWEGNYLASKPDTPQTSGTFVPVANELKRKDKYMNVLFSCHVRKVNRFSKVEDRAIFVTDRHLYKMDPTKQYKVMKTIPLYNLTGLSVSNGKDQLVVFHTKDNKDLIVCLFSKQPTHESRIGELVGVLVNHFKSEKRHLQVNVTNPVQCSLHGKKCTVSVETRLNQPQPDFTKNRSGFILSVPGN
UniProt O14950, whole entry, looked up: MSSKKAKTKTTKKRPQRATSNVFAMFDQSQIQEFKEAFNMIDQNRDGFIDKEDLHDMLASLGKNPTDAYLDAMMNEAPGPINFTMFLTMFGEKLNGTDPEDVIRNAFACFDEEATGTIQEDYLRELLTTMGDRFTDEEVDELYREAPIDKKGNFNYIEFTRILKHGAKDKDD
UniProt P10242: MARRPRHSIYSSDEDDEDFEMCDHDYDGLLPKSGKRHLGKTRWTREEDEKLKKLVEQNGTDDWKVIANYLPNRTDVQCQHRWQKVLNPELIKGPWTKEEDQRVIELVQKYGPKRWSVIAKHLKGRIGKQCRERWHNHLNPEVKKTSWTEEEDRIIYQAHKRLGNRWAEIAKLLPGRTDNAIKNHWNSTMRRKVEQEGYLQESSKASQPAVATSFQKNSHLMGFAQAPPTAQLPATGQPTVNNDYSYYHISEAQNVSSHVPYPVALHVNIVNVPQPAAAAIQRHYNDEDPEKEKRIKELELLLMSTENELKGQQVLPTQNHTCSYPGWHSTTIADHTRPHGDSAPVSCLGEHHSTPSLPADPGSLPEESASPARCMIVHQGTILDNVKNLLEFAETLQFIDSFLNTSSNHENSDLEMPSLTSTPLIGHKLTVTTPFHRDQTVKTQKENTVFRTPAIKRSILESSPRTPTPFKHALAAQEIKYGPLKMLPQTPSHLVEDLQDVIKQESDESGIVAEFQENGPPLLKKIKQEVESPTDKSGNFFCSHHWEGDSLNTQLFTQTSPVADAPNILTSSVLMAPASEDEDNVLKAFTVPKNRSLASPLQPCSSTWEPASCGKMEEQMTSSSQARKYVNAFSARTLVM
UniProt Q147X3: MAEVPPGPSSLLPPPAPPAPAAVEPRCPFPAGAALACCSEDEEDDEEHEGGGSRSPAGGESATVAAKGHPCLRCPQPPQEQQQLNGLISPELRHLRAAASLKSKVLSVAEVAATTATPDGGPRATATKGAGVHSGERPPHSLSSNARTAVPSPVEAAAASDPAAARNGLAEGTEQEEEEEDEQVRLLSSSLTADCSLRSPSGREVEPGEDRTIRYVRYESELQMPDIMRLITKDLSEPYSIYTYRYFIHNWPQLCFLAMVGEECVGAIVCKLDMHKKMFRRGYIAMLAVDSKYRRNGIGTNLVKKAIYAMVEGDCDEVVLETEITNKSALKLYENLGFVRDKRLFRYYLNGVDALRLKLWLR
UniProt Q96NT1: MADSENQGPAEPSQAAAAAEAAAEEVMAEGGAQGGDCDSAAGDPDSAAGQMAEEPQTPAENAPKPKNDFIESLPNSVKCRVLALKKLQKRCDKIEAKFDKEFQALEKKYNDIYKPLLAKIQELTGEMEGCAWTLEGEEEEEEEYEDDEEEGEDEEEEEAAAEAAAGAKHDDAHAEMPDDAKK
UniProt Q03426, whole entry, looked up: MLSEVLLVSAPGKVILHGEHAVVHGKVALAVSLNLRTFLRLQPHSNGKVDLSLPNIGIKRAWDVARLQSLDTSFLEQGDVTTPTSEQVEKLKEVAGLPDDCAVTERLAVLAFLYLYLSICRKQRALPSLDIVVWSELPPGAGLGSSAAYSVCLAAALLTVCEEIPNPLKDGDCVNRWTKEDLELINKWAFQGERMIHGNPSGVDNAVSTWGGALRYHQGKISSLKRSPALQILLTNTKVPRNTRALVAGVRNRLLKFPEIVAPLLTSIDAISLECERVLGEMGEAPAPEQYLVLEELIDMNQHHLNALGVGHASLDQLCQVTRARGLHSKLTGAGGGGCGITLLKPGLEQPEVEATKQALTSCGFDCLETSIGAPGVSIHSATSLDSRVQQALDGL
UniProt Q13459: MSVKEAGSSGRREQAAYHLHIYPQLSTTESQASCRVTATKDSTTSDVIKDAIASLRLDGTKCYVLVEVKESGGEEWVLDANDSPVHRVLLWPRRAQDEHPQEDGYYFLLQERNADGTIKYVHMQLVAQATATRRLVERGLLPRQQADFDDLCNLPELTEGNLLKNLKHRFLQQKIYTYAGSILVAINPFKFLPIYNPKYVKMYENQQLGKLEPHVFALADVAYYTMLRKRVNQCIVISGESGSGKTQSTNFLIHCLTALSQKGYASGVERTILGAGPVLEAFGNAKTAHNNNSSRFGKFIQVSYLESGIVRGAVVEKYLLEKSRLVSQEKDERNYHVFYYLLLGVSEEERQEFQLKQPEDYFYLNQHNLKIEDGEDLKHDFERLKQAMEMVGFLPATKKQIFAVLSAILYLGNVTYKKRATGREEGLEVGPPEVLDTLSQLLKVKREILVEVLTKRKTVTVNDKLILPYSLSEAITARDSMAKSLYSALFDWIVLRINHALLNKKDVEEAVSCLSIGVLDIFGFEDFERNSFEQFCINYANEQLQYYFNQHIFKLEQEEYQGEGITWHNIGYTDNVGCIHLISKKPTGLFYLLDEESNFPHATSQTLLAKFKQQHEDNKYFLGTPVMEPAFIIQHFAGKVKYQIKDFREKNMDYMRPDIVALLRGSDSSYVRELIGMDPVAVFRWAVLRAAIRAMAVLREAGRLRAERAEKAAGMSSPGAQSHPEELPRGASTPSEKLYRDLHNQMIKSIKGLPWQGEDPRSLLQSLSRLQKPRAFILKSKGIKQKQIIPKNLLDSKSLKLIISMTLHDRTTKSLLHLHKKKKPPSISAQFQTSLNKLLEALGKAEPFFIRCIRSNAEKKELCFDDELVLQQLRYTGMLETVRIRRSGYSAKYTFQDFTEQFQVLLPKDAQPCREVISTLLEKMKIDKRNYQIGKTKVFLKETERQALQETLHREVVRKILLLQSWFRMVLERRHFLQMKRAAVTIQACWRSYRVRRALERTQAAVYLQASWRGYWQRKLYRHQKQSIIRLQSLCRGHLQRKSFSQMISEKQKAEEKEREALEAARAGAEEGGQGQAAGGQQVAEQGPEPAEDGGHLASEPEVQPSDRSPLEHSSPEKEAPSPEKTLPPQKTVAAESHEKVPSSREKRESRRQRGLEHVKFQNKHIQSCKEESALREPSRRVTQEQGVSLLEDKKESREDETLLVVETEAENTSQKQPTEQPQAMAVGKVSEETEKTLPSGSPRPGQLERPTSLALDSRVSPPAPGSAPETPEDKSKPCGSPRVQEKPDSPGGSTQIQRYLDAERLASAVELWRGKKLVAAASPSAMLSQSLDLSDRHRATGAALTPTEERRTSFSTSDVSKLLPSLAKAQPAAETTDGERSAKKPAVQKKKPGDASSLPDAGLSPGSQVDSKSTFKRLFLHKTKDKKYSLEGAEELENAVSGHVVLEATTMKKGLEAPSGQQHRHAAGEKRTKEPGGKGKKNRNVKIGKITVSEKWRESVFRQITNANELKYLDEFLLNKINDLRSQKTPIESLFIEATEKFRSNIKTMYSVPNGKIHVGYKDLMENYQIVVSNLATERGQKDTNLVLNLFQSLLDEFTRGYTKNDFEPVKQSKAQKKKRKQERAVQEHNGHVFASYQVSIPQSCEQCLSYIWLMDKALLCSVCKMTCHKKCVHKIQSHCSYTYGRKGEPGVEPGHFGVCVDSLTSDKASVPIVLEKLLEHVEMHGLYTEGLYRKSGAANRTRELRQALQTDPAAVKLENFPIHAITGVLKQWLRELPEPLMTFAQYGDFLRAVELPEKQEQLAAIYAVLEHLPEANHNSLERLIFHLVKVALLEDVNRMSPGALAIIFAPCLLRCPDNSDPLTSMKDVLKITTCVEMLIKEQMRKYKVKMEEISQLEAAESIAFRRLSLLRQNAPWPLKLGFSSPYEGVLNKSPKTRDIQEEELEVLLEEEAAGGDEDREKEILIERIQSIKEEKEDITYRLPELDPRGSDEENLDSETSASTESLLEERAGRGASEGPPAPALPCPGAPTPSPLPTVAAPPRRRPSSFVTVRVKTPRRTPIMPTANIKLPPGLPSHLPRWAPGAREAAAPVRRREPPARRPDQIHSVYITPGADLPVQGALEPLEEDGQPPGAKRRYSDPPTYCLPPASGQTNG
UniProt Q96DR8: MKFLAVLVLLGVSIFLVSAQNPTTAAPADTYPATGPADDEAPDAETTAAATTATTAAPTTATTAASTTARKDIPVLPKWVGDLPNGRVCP

Assays:
Assay in all cases: log2 fold change, soluble protein after heating vs DMSO (PISA); higher = thermal stabilisation; K562 lysate, 10 uM; active = over 0.2 and 3.5 SD of the protein, either way, in both replicates (recomputed)
nilotinib = compound: Cc1cn(-c2cc(NC(=O)c3ccc(C)c(Nc4nccc(-c5cccnc5)n4)c3)cc(C(F)(F)F)c2)cn1 [nilotinib]
Procedure, shortened: (§1)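 The values are log-two fold changes in thermal stability compared with solvent controls and come from duplicates. They were obtained by TMTpro 16plex LC-MS/MS, with channel sums equalised, on the supernatant after 21,000xg for 90 min. That supernatant came from crude K562 extract at 1 mg/mL protein treated with 10 μM compound for 30 min, heated for 3 min across 48°C-58°C, pooled and brought to 0.5% NP-40 at 4°C.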

[1] = compound: Cc1nc(Nc2n[nH]c3c2CN(C(=O)N[C@H](CN(C)C)c2ccccc2)C3(C)C)c2sccc2n1
Procedure, shortened: as §1

dasatinib = compound: Cc1nc(Nc2ncc(C(=O)Nc3c(C)cccc3Cl)s2)cc(N2CCN(CCO)CC2)n1 [dasatinib]
Procedure, shortened: as §1

[2] = compound: Cc1ncc(-c2ccnc(Nc3ccc(S(C)(=O)=O)cc3)n2)n1C(C)C
Procedure, shortened: as §1

[3] = compound: Cn1cc(-c2ccc3c(c2)CCN3C(=O)Cc2cccc(C(F)(F)F)c2)c2c(N)ncnc21
Procedure, shortened: as §1

quisinostat = compound: Cn1cc(CNCC2CCN(c3ncc(C(=O)NO)cn3)CC2)c2ccccc21 [quisinostat]
Procedure, shortened: as §1

tipifarnib = compound: Cn1cncc1[C@@](N)(c1ccc(Cl)cc1)c1ccc2c(c1)c(-c1cccc(Cl)c1)cc(=O)n2C [tipifarnib]
Procedure, shortened: as §1

[4] = compound: NC(=O)Nc1cc(-c2cccc(F)c2)sc1C(=O)N[C@H]1CCCNC1
Procedure, shortened: as §1

[5] = compound: NC(=O)c1cnc(N[C@@H]2CCCC[C@@H]2N)nc1Nc1cccc(-n2nccn2)c1
Procedure, shortened: as §1

[6] = compound: NC1(c2ccc(-c3nc4ccn5c(=O)[nH]nc5c4cc3-c3ccccc3)cc2)CCC1
Procedure, shortened: as §1

[7] = compound: NCC(=O)Nc1ccc(-n2nc(C(F)(F)F)cc2-c2ccc3c(ccc4ccccc43)c2)cc1
Procedure, shortened: as §1

vorinostat = compound: O=C(CCCCCCC(=O)Nc1ccccc1)NO [vorinostat]
Procedure, shortened: as §1

silmitasertib = compound: O=C(O)c1ccc2c(c1)nc(Nc1cccc(Cl)c1)c1ccncc12 [silmitasertib]
Procedure, shortened: as §1

[8] = compound: O=C1NC(=O)C(c2cnc3ccccn23)=C1c1cn2c3c(cc(F)cc13)CN(C(=O)N1CCCCC1)CC2
Procedure, shortened: as §1

entospletinib = compound: c1cn2cc(-c3ccc4cn[nH]c4c3)nc(Nc3ccc(N4CCOCC4)cc3)c2n1 [entospletinib]
Procedure, shortened: as §1

Row | Target | log2 fold change (nilotinib) | log2 fold change [1] | log2 fold change (dasatinib) | log2 fold change [2] | log2 fold change [3] | log2 fold change (quisinostat) | log2 fold change (tipifarnib) | log2 fold change [4] | log2 fold change [5] | log2 fold change [6] | log2 fold change [7] | log2 fold change (vorinostat) | log2 fold change (silmitasertib) | log2 fold change [8] | log2 fold change (entospletinib)
1 | NCOA4 isoform 4 (UniProt Q13772) | inactive: -0.041 | inactive: 0.002 | inactive: -0.018 | inactive: -0.047 | inactive: -0.013 | inactive: -0.005 | inactive: -0.107 | inactive: 0.057 | inactive: 0.173 | inactive: -0.051 | inactive: 0.015 | inactive: -0.202 | inactive: 0.038 | inactive: -0.037 | inactive: 0.023
2 | NAA25 (UniProt Q14CX7) | inactive: 0 | inactive: -0.017 | inactive: -0.034 | inactive: -0.008 | inactive: 0 | inactive: 0.033 | inactive: 0.015 | inactive: 0.008 | inactive: -0.013 | inactive: -0.006 | inactive: -0.022 | inactive: 0.053 | inactive: 0.011 | inactive: -0.011 | inactive: -0.017
3 | NCKIPSD (UniProt Q9NZQ3) | inactive: 0.015 | inactive: 0.017 | inactive: -0.02 | inactive: -0.204 | inactive: 0.097 | inactive: 0.093 | inactive: -0.042 | inactive: 0.039 | inactive: 0.03 | inactive: 0.078 | inactive: 0.005 | inactive: -0.214 | inactive: 0.027 | inactive: -0.062 | inactive: -0.008
4 | NCAPG2 (UniProt Q86XI2) | inactive: -0.002 | inactive: -0.035 | inactive: -0.078 | inactive: -0.024 | inactive: -0.015 | inactive: -0.092 | inactive: 0.003 | inactive: 0.061 | inactive: 0.045 | inactive: -0.031 | inactive: 0.002 | active: -0.598 | inactive: 0.015 | inactive: -0.016 | inactive: 0.009
5 | MYCBP (UniProt Q99417) | inactive: -0.034 | inactive: 0.041 | inactive: 0.019 | inactive: 0.055 | inactive: -0.011 | inactive: -0.058 | inactive: -0.011 | inactive: -0.038 | inactive: -0.02 | inactive: 0.029 | inactive: 0.006 | inactive: 0.113 | inactive: -0.015 | inactive: -0.025 | inactive: -0.075
6 | MYO1D (UniProt O94832) | inactive: 0.002 | inactive: -0.01 | inactive: -0.036 | inactive: -0.006 | inactive: 0.016 | inactive: -0.031 | inactive: -0.004 | inactive: 0.05 | inactive: 0 | inactive: -0.042 | inactive: 0.046 | active: -0.418 | inactive: 0.012 | inactive: -0.027 | inactive: -0.002
7 | MYO9A isoform 4 (UniProt B2RTY4) | inactive: 0.059 | inactive: -0.044 | inactive: -0.176 | inactive: 0 | inactive: 0.052 | inactive: -0.074 | inactive: -0.005 | inactive: 0.112 | inactive: 0.039 | inactive: -0.112 | inactive: -0.051 | inactive: 0.084 | inactive: -0.019 | inactive: -0.03 | 
8 | MYL12B (UniProt O14950) | inactive: 0.053 | inactive: -0.005 | inactive: 0.046 | inactive: -0.015 | inactive: -0.037 | inactive: -0.018 | inactive: 0.006 | inactive: 0.016 | inactive: 0.014 | inactive: 0.012 | inactive: -0.017 | inactive: 0.122 | inactive: 0.014 | inactive: 0.049 | inactive: -0.022
9 | NBAS (UniProt A2RRP1) | inactive: 0.002 | inactive: -0.07 | inactive: -0.016 | inactive: -0.021 | inactive: 0.087 | inactive: 0.029 | inactive: -0.054 | inactive: -0.024 | inactive: -0.009 | inactive: 0.048 | inactive: -0.068 | inactive: -0.238 | inactive: 0.089 | inactive: -0.053 | inactive: 0.029
10 | MYB isoform 4 (UniProt P10242) | inactive: 0.1 | inactive: 0.056 | inactive: 0 | inactive: -0.042 | inactive: 0.02 | inactive: -0.045 | inactive: -0.227 | inactive: 0.136 | inactive: 0.014 | inactive: -0.017 | inactive: -0.01 | inactive: 0.002 | inactive: -0.013 | inactive: 0.011 | inactive: 0.051
11 | NAA30 (UniProt Q147X3) | inactive: -0.036 | inactive: 0.019 | inactive: -0.042 | inactive: 0.059 | inactive: -0.005 | inactive: 0.032 | inactive: -0.097 | inactive: 0.001 | inactive: -0.018 | inactive: 0.041 | inactive: -0.019 | active: -0.235 | inactive: 0.047 | inactive: 0.009 | inactive: -0.003
12 | NCL (UniProt P19338) | inactive: -0.007 | inactive: -0.026 | inactive: 0.003 | inactive: 0.011 | inactive: 0.013 | inactive: 0.014 | inactive: 0.015 | inactive: -0.014 | inactive: -0.024 | inactive: 0.003 | inactive: 0.016 | inactive: 0.198 | inactive: -0.004 | inactive: 0.01 | inactive: 0.009
13 | NCLN (UniProt Q969V3) | inactive: -0.026 | inactive: -0.013 | inactive: -0.004 | inactive: 0.034 | inactive: 0.035 | inactive: 0.007 | inactive: -0.013 | inactive: 0.025 | inactive: 0.009 | inactive: 0.002 | inactive: -0.004 | inactive: 0.137 | inactive: 0.024 | inactive: -0.009 | inactive: -0.003
14 | MXRA7 (UniProt P84157) | inactive: -0.307 | inactive: 0 | inactive: 0.03 | inactive: -0.202 | inactive: -0.034 | inactive: -0.069 | inactive: -0.006 | inactive: 0.1 | inactive: -0.078 | inactive: -0.003 | inactive: 0.118 | inactive: 0.262 | inactive: -0.102 | inactive: 0.099 | inactive: 0.021
15 | NAP1L5 (UniProt Q96NT1) | inactive: -0.008 | inactive: -0.053 | inactive: 0.024 | inactive: 0.045 | inactive: 0.01 | inactive: 0.068 | inactive: 0.054 | inactive: -0.05 | inactive: -0.049 | inactive: 0.005 | inactive: 0.023 | inactive: 0.059 | inactive: 0.033 | inactive: -0.049 | inactive: 0.071
16 | NCR3LG1 (UniProt Q68D85) | inactive: 0.065 | inactive: -0.1 | inactive: 0.008 | inactive: -0.019 | inactive: -0.012 | inactive: 0.033 | inactive: 0.007 | inactive: 0.01 | inactive: -0.026 | inactive: 0.023 | inactive: 0.027 | inactive: 0.049 | inactive: -0.006 | inactive: -0.008 | inactive: -0.01
17 | MVK (UniProt Q03426) | inactive: -0.026 | inactive: 0.021 | inactive: -0.039 | inactive: -0.014 | inactive: -0.02 | inactive: -0.005 | inactive: -0.035 | inactive: 0.017 | inactive: 0.021 | inactive: 0.024 | inactive: 0.006 | inactive: 0.13 | inactive: 0.008 | inactive: -0.016 | inactive: -0.037
18 | MYO9B (UniProt Q13459) | inactive: 0.017 | inactive: -0.003 | inactive: -0.01 | inactive: -0.026 | inactive: 0.017 | inactive: -0.018 | inactive: -0.002 | inactive: 0.026 | inactive: 0.015 | inactive: 0.004 | inactive: 0.043 | inactive: -0.135 | inactive: 0.046 | inactive: -0.038 | inactive: -0.018
19 | MYCBP2 (UniProt O75592) | inactive: 0.028 | inactive: -0.013 | inactive: -0.038 | inactive: -0.013 | inactive: 0.015 | inactive: -0.116 | inactive: -0.008 | inactive: 0.019 | inactive: 0.012 | inactive: -0.013 | inactive: 0.031 | active: -0.223 | inactive: -0.002 | inactive: 0.007 | inactive: -0.002
20 | NACC1 (UniProt Q96RE7) | inactive: -0.013 | inactive: 0.031 | inactive: -0.006 | inactive: -0.007 | inactive: 0.022 | inactive: -0.024 | inactive: -0.008 | inactive: -0.04 | inactive: 0.022 | inactive: 0.015 | inactive: -0.014 | active: -0.231 | inactive: 0.024 | inactive: -0.004 | inactive: -0.036
21 | MUCL1 (UniProt Q96DR8) | inactive: 0.652 | inactive: 0.161 | inactive: -0.332 | inactive: 0.274 | inactive: 1.15 | inactive: -0.156 | inactive: -0.29 | inactive: -0.239 | inactive: 0.095 | inactive: 0.04 | inactive: 0.244 | inactive: 0.599 | inactive: -0.233 | inactive: 0.283 | inactive: -0.165

Single records (already shown). Order of values: log2 fold change (nilotinib)	log2 fold change [1]	log2 fold change (dasatinib)	log2 fold change [2]	log2 fold change [3]	log2 fold change (quisinostat)	log2 fold change (tipifarnib)	log2 fold change [4]	log2 fold change [5]	log2 fold change [6]	log2 fold change [7]	log2 fold change (vorinostat)	log2 fold change (silmitasertib)	log2 fold change [8]	log2 fold change (entospletinib)
MVK (UniProt Q03426) is listed with inactive: -0.026	inactive: 0.021	inactive: -0.039	inactive: -0.014	inactive: -0.02	inactive: -0.005	inactive: -0.035	inactive: 0.017	inactive: 0.021	inactive: 0.024	inactive: 0.006	inactive: 0.13	inactive: 0.008	inactive: -0.016	inactive: -0.037
MYL12B (UniProt O14950) is listed with inactive: 0.053	inactive: -0.005	inactive: 0.046	inactive: -0.015	inactive: -0.037	inactive: -0.018	inactive: 0.006	inactive: 0.016	inactive: 0.014	inactive: 0.012	inactive: -0.017	inactive: 0.122	inactive: 0.014	inactive: 0.049	inactive: -0.022
